These are yes or no findings as the source states them, for the method shown. In cells and extracts the contact can be indirect. Some binding calls cover weakened binding; strength is not graded here. For some of these results: Where a sequence is shown, tags or fusion partners need not be part of it.
Columns and labels:
[1] = target: T1, TFIIH subunit p44 (GTF2H2) (human (endogenous in HeLa)) (UniProt Q13888); test: co-IP
T1 sequence: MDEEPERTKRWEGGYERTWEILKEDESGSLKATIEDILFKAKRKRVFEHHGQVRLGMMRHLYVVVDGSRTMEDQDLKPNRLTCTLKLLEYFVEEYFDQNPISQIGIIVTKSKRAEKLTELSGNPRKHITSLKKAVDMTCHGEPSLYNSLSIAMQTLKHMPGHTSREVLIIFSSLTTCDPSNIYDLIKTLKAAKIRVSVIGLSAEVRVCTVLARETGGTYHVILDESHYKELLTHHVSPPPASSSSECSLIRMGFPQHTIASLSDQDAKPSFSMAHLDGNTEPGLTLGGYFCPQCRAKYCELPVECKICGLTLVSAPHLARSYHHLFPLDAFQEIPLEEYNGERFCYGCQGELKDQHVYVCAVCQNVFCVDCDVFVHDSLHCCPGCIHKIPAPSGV

Amino acid sequences for entries named in this document (tags omitted).
UniProt P32780: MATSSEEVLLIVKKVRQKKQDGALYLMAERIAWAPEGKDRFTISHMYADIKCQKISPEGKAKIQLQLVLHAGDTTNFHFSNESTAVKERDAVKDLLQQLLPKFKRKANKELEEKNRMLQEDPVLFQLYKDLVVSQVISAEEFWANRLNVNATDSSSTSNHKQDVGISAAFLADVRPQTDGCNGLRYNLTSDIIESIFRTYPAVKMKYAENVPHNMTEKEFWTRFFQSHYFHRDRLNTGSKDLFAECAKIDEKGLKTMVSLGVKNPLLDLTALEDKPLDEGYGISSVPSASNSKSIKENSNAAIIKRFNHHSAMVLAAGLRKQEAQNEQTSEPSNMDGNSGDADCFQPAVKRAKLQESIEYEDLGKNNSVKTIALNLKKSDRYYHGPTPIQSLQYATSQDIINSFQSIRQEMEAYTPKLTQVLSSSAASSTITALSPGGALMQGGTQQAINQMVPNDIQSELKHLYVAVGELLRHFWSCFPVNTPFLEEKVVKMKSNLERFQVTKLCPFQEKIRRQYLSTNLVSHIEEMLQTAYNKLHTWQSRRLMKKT
UniProt P21698: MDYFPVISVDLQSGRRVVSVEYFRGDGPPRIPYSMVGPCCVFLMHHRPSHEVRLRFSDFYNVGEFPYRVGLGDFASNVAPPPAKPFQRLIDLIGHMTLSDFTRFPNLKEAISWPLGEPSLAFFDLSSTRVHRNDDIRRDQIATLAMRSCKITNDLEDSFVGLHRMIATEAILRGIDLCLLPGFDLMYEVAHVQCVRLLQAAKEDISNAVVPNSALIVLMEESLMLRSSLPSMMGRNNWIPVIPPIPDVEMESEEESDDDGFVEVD

[2] = target: T2, human FBXO3 isoform 1 with an N-terminal V5 tag (human) (UniProt Q9UK99); test: co-IP
T2 sequence: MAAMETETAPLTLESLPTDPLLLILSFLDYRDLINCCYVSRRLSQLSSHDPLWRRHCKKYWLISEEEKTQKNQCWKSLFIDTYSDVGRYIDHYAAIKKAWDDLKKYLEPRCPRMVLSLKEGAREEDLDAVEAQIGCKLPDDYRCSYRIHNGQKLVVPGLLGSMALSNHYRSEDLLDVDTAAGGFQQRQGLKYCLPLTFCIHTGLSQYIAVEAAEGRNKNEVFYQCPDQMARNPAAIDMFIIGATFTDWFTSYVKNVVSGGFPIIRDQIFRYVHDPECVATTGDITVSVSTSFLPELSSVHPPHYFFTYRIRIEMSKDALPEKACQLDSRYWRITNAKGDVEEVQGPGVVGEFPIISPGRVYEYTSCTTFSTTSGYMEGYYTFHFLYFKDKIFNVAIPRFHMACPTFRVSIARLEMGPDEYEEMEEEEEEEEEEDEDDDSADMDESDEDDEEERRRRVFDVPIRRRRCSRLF

[3] = target: T3, human Sin3-associated protein 30 with an N-terminal V5 tag (human) (UniProt O75446); test: co-IP
T3 sequence: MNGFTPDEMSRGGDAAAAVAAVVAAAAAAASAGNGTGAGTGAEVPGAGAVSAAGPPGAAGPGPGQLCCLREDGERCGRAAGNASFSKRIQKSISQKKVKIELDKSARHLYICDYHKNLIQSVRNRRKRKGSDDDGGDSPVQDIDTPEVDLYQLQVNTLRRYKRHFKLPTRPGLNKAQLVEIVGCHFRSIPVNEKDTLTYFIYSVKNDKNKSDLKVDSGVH

[4] = target: TFIIH subunit p62 (GTF2H1) (human (endogenous in HeLa)) (UniProt P32780); test: co-IP; […] (20 mM Tris-HCl pH 7.6, 0.1% Triton X-100, 150 mM NaCl, 1 mM EDTA, […]

Measured: binding

RVFV MP-12 NSs protein with a C-terminal Flag tag (wild type NSs) (from UniProt P21698 1-265)
binds: [1] | [2] | [3] | [4]
